# Test results taken from US12612394B2, “Herbicidal malonamides” (BASF SE, priority 2020, dated 2026).
# Some results were stated once for a whole list of compounds, not compound by compound.
# How the values were obtained:
# ALOMY = test: greenhouse experiment, post-emergence treatment; type: in vivo, Alopercurus myosuroides; conditions: post-emergence method
# ABUTH [1] = test: greenhouse experiment, pre-emergence treatment; type: in vivo, Abutilon theophrasti; conditions: application rate 0.250 kg/ha, pre-emergence method
# Description: (§1) The culture containers used were plastic flowerpots containing loamy sand with approximately 3.0% of humus as the substrate. The seeds of the test plants were sown separately for each species.
# (§2) For the pre-emergence treatment, the active ingredients, which had been suspended or emulsified in water, were applied directly after sowing by means of finely distributing nozzles. The containers were irrigated gently to promote germination and growth and subsequently covered with transparent plastic hoods until the test plants had rooted. This cover caused uniform germination of the test plants, unless this had been impaired by the active ingredients. For the post-emergence treatment, the test plants were first grown to a height of 3 to 15 cm, depending on the plant habit, and only then treated with the active ingredients which had been suspended or emulsified in water. For this purpose, the test plants were either sown directly and grown in the same containers, or they were first grown separately as seedlings and transplanted into the test containers a few days prior to treatment.
# (§3) Depending on the species, the test plants were kept at 10-25° C. or 20-35° C., respectively. The test period extended over 2 to 4 weeks. During this time, the test plants were tended, and their response to the individual treatments was evaluated.
# (§4) Evaluation was carried out using a scale from 0 to 100. 100 means no emergence of the test plants, or complete destruction of at least the aerial moieties, and 0 means no damage, or normal course of growth. A good herbicidal activity is given at values of 70 to 90 and a very good herbicidal activity is given at values of 90 to 100.
# (§5) The test plants used in the greenhouse experiments were of the following species: […]
# ABUTH [2] = test: greenhouse experiment, post-emergence treatment; type: in vivo, Abutilon theophrasti; conditions: post-emergence method
# ECHCG = test: greenhouse experiment, pre-emergence treatment; type: in vivo, Echinocloa crus-galli; conditions: pre-emergence method
# Description: as §1, §2, §3, §4, §5
# AMARE [3] = test: greenhouse experiment, post-emergence treatment; type: in vivo, Amaranthus retroflexus; conditions: post-emergence method
# AMARE [4] = test: greenhouse experiment, pre-emergence treatment; type: in vivo, Amaranthus retroflexus; conditions: application rate 0.250 kg/ha, pre-emergence method
# Description: as §1, §2, §3, §4, §5
# AVEFA = test: greenhouse experiment, post-emergence treatment; type: in vivo, Avena fatua; conditions: application rate 0.500 kg/ha, post-emergence method
# APESV = test: greenhouse experiment, pre-emergence treatment; type: in vivo, Apera spica-venti; conditions: pre-emergence method
# SETFA = test: greenhouse experiment, pre-emergence treatment; type: in vivo, Setaria faberi; conditions: application rate 0.500 kg/ha, pre-emergence method
# Description: as §1, §2, §3, §4, §5
SMILES,herbicidal activity against ALOMY (ALOMY; application rate 0.250 kg/ha),herbicidal activity against ABUTH (ABUTH [1]),herbicidal activity against ABUTH (ABUTH [2]; application rate 0.250 kg/ha),herbicidal activity against ECHCG (ECHCG; application rate 0.250 kg/ha),herbicidal activity against AMARE (AMARE [3]; application rate 0.250 kg/ha),herbicidal activity against AMARE (AMARE [4]),herbicidal activity against ABUTH (ABUTH [2]; application rate 0.500 kg/ha),herbicidal activity against ECHCG (ECHCG; application rate 0.500 kg/ha),herbicidal activity against AMARE (AMARE [3]; application rate 0.500 kg/ha),herbicidal activity against AVEFA (AVEFA),herbicidal activity against APESV (APESV; application rate 0.500 kg/ha),herbicidal activity against SETFA (SETFA),herbicidal activity against APESV (APESV; application rate 0.250 kg/ha),herbicidal activity against ALOMY (ALOMY; application rate 0.125 kg/ha),herbicidal activity against ABUTH (ABUTH [2]; application rate 0.125 kg/ha)
COC(C(=O)Nc1cc(F)cc(Cl)c1)C(=O)N[C@H]1C=C[C@@H](C(=O)OC(C)C)C1 (relative stereo) [I.165],very good (a very good herbicidal activity is given at values of 90 to 100),good (A good herbicidal activity is given at values of 70 to 90),very good (a very good herbicidal activity is given at values of 90 to 100),very good (a very good herbicidal activity is given at values of 90 to 100),very good (a very good herbicidal activity is given at values of 90 to 100),very good (a very good herbicidal activity is given at values of 90 to 100),–,–,–,–,–,–,–,–,–
COC(C(=O)Nc1nnnn1C)C(=O)N(C)c1cc(Cl)cc(Cl)c1 (stereo not shown) [I.145],–,–,–,–,–,–,good (A good herbicidal activity is given at values of 70 to 90),very good (a very good herbicidal activity is given at values of 90 to 100),good (A good herbicidal activity is given at values of 70 to 90),very good (a very good herbicidal activity is given at values of 90 to 100),good (A good herbicidal activity is given at values of 70 to 90),good (A good herbicidal activity is given at values of 70 to 90),–,–,–
COC(C(=O)Nc1cc(Cl)cc(Cl)c1)C(=O)N(C)[C@H]1C=C[C@@H](C(=O)OC2CCC2)C1 (stereo partly shown) [I.157],–,good (A good herbicidal activity is given at values of 70 to 90),good (A good herbicidal activity is given at values of 70 to 90),–,good (A good herbicidal activity is given at values of 70 to 90),–,–,–,–,–,–,–,good (A good herbicidal activity is given at values of 70 to 90),–,–
COC(C(=O)Nc1cccc(F)c1)C(=O)N[C@H]1C=C[C@@H](C(=O)OC(C)C)C1 (stereo partly shown) [I.162],very good (a very good herbicidal activity is given at values of 90 to 100),good (A good herbicidal activity is given at values of 70 to 90),very good (a very good herbicidal activity is given at values of 90 to 100),–,very good (a very good herbicidal activity is given at values of 90 to 100),very good (a very good herbicidal activity is given at values of 90 to 100),–,–,–,–,–,–,very good (a very good herbicidal activity is given at values of 90 to 100),–,–
COC(=O)C1C=CC(NC(=O)C(OC)C(=O)Nc2cc(Cl)c(Cl)c(Cl)c2)C1 (stereo not shown) [I.186],very good (a very good herbicidal activity is given at values of 90 to 100),good (A good herbicidal activity is given at values of 70 to 90),very good (a very good herbicidal activity is given at values of 90 to 100),–,–,very good (a very good herbicidal activity is given at values of 90 to 100),–,–,–,–,–,–,very good (a very good herbicidal activity is given at values of 90 to 100),–,–
COC(=O)[C@@H]1C=C[C@H](NC(=O)C(OC)C(=O)Nc2cccc(OC(F)(F)C(F)F)c2)C1 (stereo partly shown) [I.192],very good (a very good herbicidal activity is given at values of 90 to 100),very good (a very good herbicidal activity is given at values of 90 to 100),good (A good herbicidal activity is given at values of 70 to 90),–,good (A good herbicidal activity is given at values of 70 to 90),–,–,–,–,–,–,–,very good (a very good herbicidal activity is given at values of 90 to 100),very good (a very good herbicidal activity is given at values of 90 to 100),good (A good herbicidal activity is given at values of 70 to 90)
